Experimental data: article PMC12591107
These are yes or no findings as the source states them, for the method shown. For some assays here: In cells and extracts the contact can be indirect. Some binding calls cover weakened binding; strength is not graded here. For some assays here: Where a sequence is shown, tags or fusion partners need not be part of it. Values belong to the molecule of their own block, whether it stands above or below them.

Sequences of proteins named here, by UniProt entry; tags and fusion partners are left off. A change or cut given only in a name is not applied to a line headed by its entry.
UniProt P63158: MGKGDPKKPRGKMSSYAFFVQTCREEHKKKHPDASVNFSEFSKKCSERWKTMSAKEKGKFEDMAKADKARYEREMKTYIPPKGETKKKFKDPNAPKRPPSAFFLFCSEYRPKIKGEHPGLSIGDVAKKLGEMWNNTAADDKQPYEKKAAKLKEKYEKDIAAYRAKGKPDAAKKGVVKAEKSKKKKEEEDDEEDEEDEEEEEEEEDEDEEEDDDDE
UniProt Q6P5F9: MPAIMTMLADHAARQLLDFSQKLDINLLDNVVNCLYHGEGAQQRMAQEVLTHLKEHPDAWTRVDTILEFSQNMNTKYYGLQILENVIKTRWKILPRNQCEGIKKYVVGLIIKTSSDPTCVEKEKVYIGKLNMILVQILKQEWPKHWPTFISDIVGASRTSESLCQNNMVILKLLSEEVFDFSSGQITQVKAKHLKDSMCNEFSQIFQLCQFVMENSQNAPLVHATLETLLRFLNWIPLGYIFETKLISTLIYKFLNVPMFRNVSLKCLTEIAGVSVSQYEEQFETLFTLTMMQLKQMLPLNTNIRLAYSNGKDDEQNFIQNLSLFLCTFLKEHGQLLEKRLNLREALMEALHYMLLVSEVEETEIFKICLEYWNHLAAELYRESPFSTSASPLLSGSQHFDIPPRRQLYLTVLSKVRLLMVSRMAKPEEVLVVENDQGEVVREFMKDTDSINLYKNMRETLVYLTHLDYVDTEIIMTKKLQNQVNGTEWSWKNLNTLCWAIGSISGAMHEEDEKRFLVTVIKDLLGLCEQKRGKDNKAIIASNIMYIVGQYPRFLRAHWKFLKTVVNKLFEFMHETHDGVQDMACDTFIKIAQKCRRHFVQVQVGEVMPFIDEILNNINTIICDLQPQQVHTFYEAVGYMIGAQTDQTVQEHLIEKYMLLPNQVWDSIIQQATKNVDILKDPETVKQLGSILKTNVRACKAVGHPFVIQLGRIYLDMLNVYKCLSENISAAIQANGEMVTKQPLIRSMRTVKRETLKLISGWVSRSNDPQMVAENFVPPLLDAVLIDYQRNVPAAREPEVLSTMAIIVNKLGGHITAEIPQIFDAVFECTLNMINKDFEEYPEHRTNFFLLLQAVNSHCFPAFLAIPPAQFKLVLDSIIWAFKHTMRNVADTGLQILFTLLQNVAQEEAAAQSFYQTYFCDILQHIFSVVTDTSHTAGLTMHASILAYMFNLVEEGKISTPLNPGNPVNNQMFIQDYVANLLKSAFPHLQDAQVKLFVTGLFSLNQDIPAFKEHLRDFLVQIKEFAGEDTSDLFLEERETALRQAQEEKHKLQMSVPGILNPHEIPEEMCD

Tests used:
[1] = molecular target: T1, HA-tagged WT TIAR (TIAR-WT-HA) (mouse) (UniProt P70318); assay: co-IP; NIH/3T3 with knock-down of endogenous HMGB1 and TIAR, co-transfected with TIAR-WT-HA and MYC-tagged HMGB1 constructs, hypoxia (1% O2) 2 h; IP with HA antibody
T1 sequence: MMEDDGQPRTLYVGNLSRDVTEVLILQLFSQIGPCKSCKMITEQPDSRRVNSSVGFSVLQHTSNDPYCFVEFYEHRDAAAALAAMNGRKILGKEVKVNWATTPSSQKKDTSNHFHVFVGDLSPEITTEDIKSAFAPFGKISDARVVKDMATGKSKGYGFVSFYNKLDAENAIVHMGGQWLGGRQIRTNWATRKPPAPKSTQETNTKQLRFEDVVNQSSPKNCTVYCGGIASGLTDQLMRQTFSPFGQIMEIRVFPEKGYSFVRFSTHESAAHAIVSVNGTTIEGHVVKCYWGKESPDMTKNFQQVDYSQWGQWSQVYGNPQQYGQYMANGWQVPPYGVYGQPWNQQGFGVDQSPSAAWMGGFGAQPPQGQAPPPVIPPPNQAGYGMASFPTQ

[2] = molecular target: T2, HIS-TIAR (mouse) (UniProt P70318); assay: co-IP; in vitro: 500 µL of each purified protein mixed, room temperature for 12 h, immunoprecipitation with an anti-HIS antibody; both purified
T2 sequence: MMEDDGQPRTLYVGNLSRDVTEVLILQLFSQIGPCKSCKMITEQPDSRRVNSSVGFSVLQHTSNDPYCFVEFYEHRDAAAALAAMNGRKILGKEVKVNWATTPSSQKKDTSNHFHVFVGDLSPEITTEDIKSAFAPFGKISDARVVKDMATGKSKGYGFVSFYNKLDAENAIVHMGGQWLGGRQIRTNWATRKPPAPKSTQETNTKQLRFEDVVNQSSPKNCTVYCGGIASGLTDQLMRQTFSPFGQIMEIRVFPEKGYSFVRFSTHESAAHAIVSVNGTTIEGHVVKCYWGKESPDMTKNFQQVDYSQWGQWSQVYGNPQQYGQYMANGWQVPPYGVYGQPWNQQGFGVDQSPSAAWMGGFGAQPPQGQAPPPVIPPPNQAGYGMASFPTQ

[3] = molecular target: High-mobility group box 1 (HMGB1), endogenous (mouse (endogenous in NIH/3T3 and in mouse granulosa cells)) (UniProt P63158); assay: co-IP; HMGB1 and CRM1 under normoxic and hypoxic conditions (Figure S18A,B); details not shown
[4] = molecular target: MYC-tagged WT HMGB1 (HMGB1-MYC-WT) (mouse) (UniProt P63158); assay: co-IP; NIH/3T3 transfected with MYC-tagged HMGB1 (WT, K172R or K177R), normoxia or hypoxia (1% O2) 2 h; whole lysate and nuclear/cytoplasmic fractions; interaction between MYC and endogenous TIAR
[5] = molecular target: HMGB1-K177R-MYC (mouse) (UniProt P63158); assay: as above
[6] = molecular target: HMGB1-K172R-MYC (mouse) (UniProt P63158); assay: as above
[7] = molecular target: High-mobility group box 1 (HMGB1), endogenous (mouse (endogenous in NIH/3T3 and in mouse granulosa cells)) (UniProt P63158); assay: co-IP; granulosa cells collected from mice injected with saline, FSH or FSH + C646; endogenous proteins
[8] = molecular target: High-mobility group box 1 (HMGB1), endogenous (mouse (endogenous in NIH/3T3 and in mouse granulosa cells)) (UniProt P63158); assay: co-IP; endogenous proteins of NIH/3T3 cells, whole-cell lysates or nuclear/cytoplasmic fractions; normoxia (21% O2) or hypoxia (1% O2) for 2 h; also after LDHA/LDHB siRNA, sodium lactate, C646, Leptomycin B, sodium arsenite or heat shock; IP overnight at 4 °C, Protein A/G magnetic beads
[9] = molecular target: MYC-tagged WT HMGB1 (HMGB1-MYC-WT) (mouse) (UniProt P63158); assay: co-IP; NIH/3T3 with knock-down of endogenous HMGB1 and TIAR, co-transfected with HMGB1-WT-MYC and FLAG-tagged TIAR constructs, hypoxia (1% O2) 2 h; IP with MYC antibody

Molecule: GST-HMGB1 (from UniProt P63158 1-215)
binding [2]: binds

Molecule: CRM1 (also known as Exportin-1) (from UniProt Q6P5F9 1-1071)
binding [3]: binds

B1: T-cell intracellular antigen-related protein (TIAR), endogenous (protein, UniProt P70318 1-392)
chain: MMEDDGQPRTLYVGNLSRDVTEVLILQLFSQIGPCKSCKMITEQPDSRRVNSSVGFSVLQHTSNDPYCFVEFYEHRDAAAALAAMNGRKILGKEVKVNWATTPSSQKKDTSNHFHVFVGDLSPEITTEDIKSAFAPFGKISDARVVKDMATGKSKGYGFVSFYNKLDAENAIVHMGGQWLGGRQIRTNWATRKPPAPKSTQETNTKQLRFEDVVNQSSPKNCTVYCGGIASGLTDQLMRQTFSPFGQIMEIRVFPEKGYSFVRFSTHESAAHAIVSVNGTTIEGHVVKCYWGKESPDMTKNFQQVDYSQWGQWSQVYGNPQQYGQYMANGWQVPPYGVYGQPWNQQGFGVDQSPSAAWMGGFGAQPPQGQAPPPVIPPPNQAGYGMASFPTQ
binding [4]: binds | binding [5]: binds | binding [6]: binds | binding [7]: binds | binding [8]: binds

B2: FLAG-tagged WT TIAR (TIAR-WT-FLAG) (protein, UniProt P70318 1-392)
chain: MMEDDGQPRTLYVGNLSRDVTEVLILQLFSQIGPCKSCKMITEQPDSRRVNSSVGFSVLQHTSNDPYCFVEFYEHRDAAAALAAMNGRKILGKEVKVNWATTPSSQKKDTSNHFHVFVGDLSPEITTEDIKSAFAPFGKISDARVVKDMATGKSKGYGFVSFYNKLDAENAIVHMGGQWLGGRQIRTNWATRKPPAPKSTQETNTKQLRFEDVVNQSSPKNCTVYCGGIASGLTDQLMRQTFSPFGQIMEIRVFPEKGYSFVRFSTHESAAHAIVSVNGTTIEGHVVKCYWGKESPDMTKNFQQVDYSQWGQWSQVYGNPQQYGQYMANGWQVPPYGVYGQPWNQQGFGVDQSPSAAWMGGFGAQPPQGQAPPPVIPPPNQAGYGMASFPTQ
binding [9]: binds

The next lines start with the values.

binding [1]: binds
Molecule: HMGB1-MYC 140–215aa (from UniProt P63158 140-215) (domain or fragment)

binding [1]: no binding
Molecule: HMGB1-MYC 52–139aa (from UniProt P63158 52-139) (domain or fragment)

binding [9]: binds
B3: TIAR-MT-FLAG 361–376aa deletion (protein, UniProt P70318)
chain: MMEDDGQPRTLYVGNLSRDVTEVLILQLFSQIGPCKSCKMITEQPDSRRVNSSVGFSVLQHTSNDPYCFVEFYEHRDAAAALAAMNGRKILGKEVKVNWATTPSSQKKDTSNHFHVFVGDLSPEITTEDIKSAFAPFGKISDARVVKDMATGKSKGYGFVSFYNKLDAENAIVHMGGQWLGGRQIRTNWATRKPPAPKSTQETNTKQLRFEDVVNQSSPKNCTVYCGGIASGLTDQLMRQTFSPFGQIMEIRVFPEKGYSFVRFSTHESAAHAIVSVNGTTIEGHVVKCYWGKESPDMTKNFQQVDYSQWGQWSQVYGNPQQYGQYMANGWQVPPYGVYGQPWNQQGFGVDQSPSAAWMGPPPNQAGYGMASFPTQ
